# Measurements taken from PubChem BioAssay AID1487 (National Center for Advancing Translational Sciences (NCATS), 2009).
# “And” between values parts separate entries of the source, which are not always exact repeats. Equal entries are not always repeated. Some of the results follow. Shown are side measurements of this screen, not its main read-out; they come without a call. The list favours compounds with an active or inconclusive main result. Potencies come from curve fits of mixed quality, noted in brackets.
# Assay: qHTS Assay for Modulators of Lamin A Splicing
# Conditions: HeLa LMNA splicing GFP/RFP minigene ratio, 48 h
# How it was run: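 Read-out is the ratio of GFP to DsRed2 object intensity, acquired by 488 nm laser-scanning cytometry on HeLa lamin A-EGFP minigene reporter cells. Compound incubation 48 hrs at 37 °C in Opti-MEM with 2% FBS; DMSO 0.5% final.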
# [1] = measured here: GFP splicing reporter channel
# [2] = measured here: RFP viability control channel
SMILES,AC50 [1],AC50 [2]
O=C(NC1(C(F)(F)F)N=C(c2ccccc2)NC1=O)c1ccc(Cl)cc1Cl (stereo not drawn),"11.2 µM [rising, partial curve, poor fit]","15.8 µM [rising, single point]"
CCOC(=O)c1sc(NC(=O)c2ccc(S(=O)(=O)N3CCCCCC3)cc2)nc1-c1ccccc1,"10 µM [rising, single point]","12.6 µM [rising, partial curve]"
Cc1ccc(C(=O)CC(=O)c2cc(Cl)ccc2O)cc1,,"11.2 µM [rising, partial curve]"
COc1ccccc1NC(=O)COC(=O)C12CC3CC(CC(Cl)(C3)C1)C2,,"0.0447 µM [falling, full curve, poor fit]"
Cc1[nH]n(-c2ccccc2)c(=O)c1N=Nc1nccs1,,"2.24 µM [rising, full curve]"
CCOC(=O)C(C)(C)N(Cc1cccc(C)c1)S(=O)(=O)c1cccc([N+](=O)[O-])c1,,"3.16 µM [rising, full curve, poor fit]"
COc1ccc(C2CC(c3ccccc3)=NN2C(=O)COC(=O)c2cccc(S(=O)(=O)N(C)C)c2)cc1 (stereo not drawn),,"14.1 µM [rising, single point]"
Cc1cn2c(=O)cc(COC(=O)c3cccc(NC(=O)COc4ccccc4)c3)nc2s1,,"0.00447 µM [falling, full curve, poor fit]"
CN(C)c1ccc(C(C(=O)NC(C)(C)C)N(C(=O)c2csnn2)C2CC2)cc1 (stereo not drawn),,"22.4 µM [rising, partial curve]"
O=C1c2c(O)ccc(O)c2C(=O)c2c(NCCNCCO)ccc(NCCNCCO)c21,"11.2 µM [rising, partial curve] and 2.51 µM [falling, full curve]","70.8 nM [rising, full curve, poor fit] and 6.31 µM [falling, partial curve]"
Cc1cc(N2CCN(S(=O)(=O)c3ccccc3)CC2)c2ccccc2n1,,"11.2 µM [rising, single point]"
CCOc1ccc(N2C(=O)CC(N(CCc3ccc(OC)c(OC)c3)C(=S)Nc3ccccc3)C2=O)cc1 (stereo not drawn),,"0.1 µM [rising, full curve, poor fit]"
Cc1ccc(C(=O)NNC(=S)NC(=O)c2ccco2)cc1,,"11.2 µM [rising, single point]"
CN1CCN(S(=O)(=O)c2ccc(SCCOc3ccccc3)nc2)CC1,,"8.91 µM [rising, partial curve, poor fit]"
COc1ccc(/C=C/c2ccncc2)c2ccccc12,"20 µM [rising, single point]","35.5 µM [rising, single point]"
COc1ccc(Cn2c(-c3ccc(C)cc3)c[n+]3ccccc23)cc1,,"7.08 µM [rising, partial curve]"
CCc1nc(C#N)c(N2CCCCC2)o1,,"0.0316 µM [falling, full curve, poor fit]"
CCOC(=O)c1[nH]c2ccc(OCC)cc2c1CCCN1C(=O)c2ccccc2C1=O,"0.398 µM [rising, full curve, poor fit]",
CCC(C)NC(=O)Cc1c(OC)ccc2cc(Br)ccc12 (stereo not drawn),"0.158 µM [falling, single point]",
Cc1cc(Cl)c(S(=O)(=O)Nc2ccc3c(c2)OCO3)cc1OCC(=O)NC1CCCCC1,,"35.5 µM [rising, single point]"
COc1cc(C(=O)N2CCc3c([nH]c4ccccc34)C2c2ccc(F)cc2)cc(OC)c1OC (stereo not drawn),,"1.41 µM [falling, full curve]"
O=C1C2C3C=CC(C3)C2C(=O)N1CCN1CCN(S(=O)(=O)c2ccc3ccccc3c2)CC1 (stereo not drawn),,"20 µM [rising, single point]"
CC(NC(=O)c1cc2sccc2n1C)c1ccc2c(c1)OCCO2 (stereo not drawn),,"10 µM [rising, partial curve, poor fit]"
CCC(=O)N1CCc2cc(CNC(=O)Cc3ccc(OC)c(OC)c3)ccc21,,"0.0794 µM [falling, full curve, poor fit]"
Cc1sc(NC(=O)c2ccccc2)c(C(=O)c2ccccc2)c1C,,"10 µM [rising, partial curve, poor fit]"
CCN(CC)C(=O)Cn1ncc2c([nH]c3ccc(C)cc32)c1=O,"0.224 µM [falling, full curve, poor fit]",
Cc1ccnc(NS(=O)(=O)c2ccc(Oc3ccccc3)cc2)c1,"11.2 µM [rising, partial curve]","12.6 µM [rising, partial curve]"

SMILES,AC50 [1],AC50 [2]
CC1(C)CC(=O)C2=C(C1)c1c(ccc3ccccc13)NC2c1ccco1 (stereo not drawn),"28.2 µM [rising, partial curve, poor fit]","14.1 µM [rising, partial curve, poor fit]"
NC(=O)NC(=O)COC(=O)CC12CC3CC(CC(C3)C1)C2,,"6.31 µM [falling, partial curve, poor fit]"
O=C(NNC(=O)c1cccnc1SCc1cccc([N+](=O)[O-])c1)c1ccccn1,,"3.16 µM [rising, full curve]"
Nc1cc[n+](CC(=O)c2ccc3c(c2)OCCO3)cc1,,"17.8 µM [rising, single point]"
Cc1cc(/C=N/n2cnnc2)c(C)n1-c1cccc(C(=O)O)c1,"0.501 µM [falling, full curve]",
CC(C)(C)c1ccc(OCc2cnc(Cl)s2)cc1,"0.1 µM [falling, full curve, poor fit]","0.501 µM [falling, partial curve, poor fit]"
O=C(COc1ncnc2ccccc12)NCC1CCCO1 (stereo not drawn),"3.98 µM [rising, full curve, poor fit]","10 µM [rising, partial curve, poor fit]"
Cc1ccc(O)c(N=CC2=C(O)c3ccccc3C2=O)c1,"14.1 µM [rising, single point]","20 µM [rising, single point]"
O=S(=O)(c1ccc2c(c1)OCCO2)N1CCC(n2nnc3cc(C(F)(F)F)ccc32)CC1,,"17.8 µM [rising, partial curve]"
COc1ccc(-c2cc(C(=O)Nc3cc(C)n(Cc4ccc(Cl)cc4)n3)no2)cc1OC,"0.501 µM [rising, full curve]","1.26 µM [rising, full curve]"
Cc1ccc(C)c(C(=O)C(C)OC(=O)c2cccn2C)c1 (stereo not drawn),,"8.91 µM [rising, partial curve, poor fit]"
COc1ccccc1OCC(=O)Nc1ccc(S(=O)(=O)N2CCCCCC2)cc1,"31.6 µM [rising, single point]","31.6 µM [rising, single point]"
C=CCN1C(=O)C(C)S/C1=N\S(=O)(=O)c1ccc(Cl)cc1 (stereo not drawn),"6.31 µM [falling, single point]",
CCN(CC)C(=O)C1CCN(Cc2cccc(OCc3ccccc3)c2)CC1,,"35.5 µM [rising, single point]"
COc1ccc(CN(Cc2ccccn2)C(=O)CN2C(=O)C(C)Oc3ccccc32)cc1 (stereo not drawn),,"35.5 µM [rising, single point]"
COc1ccc(CNC2CC(=O)N(C)C2=O)cc1 (stereo not drawn),"0.00501 µM [rising, full curve, poor fit]","0.00501 µM [rising, full curve, poor fit]"
O=C(Nc1nccs1)c1ccc([N+](=O)[O-])cc1,,"0.2 µM [falling, full curve, poor fit]"
c1coc(CNc2nc3nonc3nc2NCc2ccco2)c1,"12.6 µM [rising, partial curve, poor fit]","12.6 µM [rising, single point]"
COc1ccc(-c2ocnc2C(=O)NCc2nn(-c3ccccc3)nc2C)cc1,"31.6 µM [falling, single point]","14.1 µM [falling, single point]"
CCCCc1nc2ccccc2c(=O)n1NC(=O)c1c(O)c2c(n(CC(C)C)c1=O)CCCC2,"10 µM [rising, partial curve]","10 µM [rising, partial curve]"
CC(C)c1ccc(Nc2cc(C(=O)NCCCN(C)Cc3ccccc3)c3ccccc3n2)cc1,"15.8 µM [falling, single point]","20 µM [falling, partial curve, poor fit]"
COc1ccc2[nH]cc(CCNc3ccnc(-c4ccccc4C(F)(F)F)n3)c2c1,"14.1 µM [falling, partial curve]",
Oc1ccc(O)c(Cc2nc3ccccc3s2)c1,"10 µM [falling, partial curve]","11.2 µM [falling, partial curve]"
COc1cc(/C=C2\SC(=O)N(Cc3ccc(F)cc3)C2=O)cc([N+](=O)[O-])c1O,"35.5 µM [rising, single point]","35.5 µM [rising, single point]"
O=C(N/N=C/c1ccc(O)c(O)c1)c1cccc(S(=O)(=O)N2CCCCC2)c1,"12.6 µM [falling, single point]",
CN(C)c1ccc(NC(=O)c2cccc(C(=O)Nc3ccc(N(C)C)cc3)n2)cc1,"35.5 µM [rising, single point]","25.1 µM [rising, single point]"
CC(C)(C)C(=O)N1CCN(c2c(Cl)cccc2[N+](=O)[O-])CC1,,"10 µM [rising, partial curve, poor fit]"

# 3 entries out of the list, sorted by heavy-atom count, smallest number first.
SMILES,AC50 [1],AC50 [2]
Nc1cc[n+](CC(=O)c2ccc3c(c2)OCCO3)cc1,,"17.8 µM [rising, single point]"
O=C(N/N=C/c1ccc(O)c(O)c1)c1cccc(S(=O)(=O)N2CCCCC2)c1,"12.6 µM [falling, single point]",
CC(C)c1ccc(Nc2cc(C(=O)NCCCN(C)Cc3ccccc3)c3ccccc3n2)cc1,"15.8 µM [falling, single point]","20 µM [falling, partial curve, poor fit]"
